Laboratory results reported in publication PMC12688176.
These are yes or no findings as the source states them, for the method shown. In cells and extracts the contact can be indirect. These calls come from enrichment with a bait or labelling near it, and not all partners need be listed.

Amino acid sequences for entries named in this document (tags omitted).
UniProt O14497: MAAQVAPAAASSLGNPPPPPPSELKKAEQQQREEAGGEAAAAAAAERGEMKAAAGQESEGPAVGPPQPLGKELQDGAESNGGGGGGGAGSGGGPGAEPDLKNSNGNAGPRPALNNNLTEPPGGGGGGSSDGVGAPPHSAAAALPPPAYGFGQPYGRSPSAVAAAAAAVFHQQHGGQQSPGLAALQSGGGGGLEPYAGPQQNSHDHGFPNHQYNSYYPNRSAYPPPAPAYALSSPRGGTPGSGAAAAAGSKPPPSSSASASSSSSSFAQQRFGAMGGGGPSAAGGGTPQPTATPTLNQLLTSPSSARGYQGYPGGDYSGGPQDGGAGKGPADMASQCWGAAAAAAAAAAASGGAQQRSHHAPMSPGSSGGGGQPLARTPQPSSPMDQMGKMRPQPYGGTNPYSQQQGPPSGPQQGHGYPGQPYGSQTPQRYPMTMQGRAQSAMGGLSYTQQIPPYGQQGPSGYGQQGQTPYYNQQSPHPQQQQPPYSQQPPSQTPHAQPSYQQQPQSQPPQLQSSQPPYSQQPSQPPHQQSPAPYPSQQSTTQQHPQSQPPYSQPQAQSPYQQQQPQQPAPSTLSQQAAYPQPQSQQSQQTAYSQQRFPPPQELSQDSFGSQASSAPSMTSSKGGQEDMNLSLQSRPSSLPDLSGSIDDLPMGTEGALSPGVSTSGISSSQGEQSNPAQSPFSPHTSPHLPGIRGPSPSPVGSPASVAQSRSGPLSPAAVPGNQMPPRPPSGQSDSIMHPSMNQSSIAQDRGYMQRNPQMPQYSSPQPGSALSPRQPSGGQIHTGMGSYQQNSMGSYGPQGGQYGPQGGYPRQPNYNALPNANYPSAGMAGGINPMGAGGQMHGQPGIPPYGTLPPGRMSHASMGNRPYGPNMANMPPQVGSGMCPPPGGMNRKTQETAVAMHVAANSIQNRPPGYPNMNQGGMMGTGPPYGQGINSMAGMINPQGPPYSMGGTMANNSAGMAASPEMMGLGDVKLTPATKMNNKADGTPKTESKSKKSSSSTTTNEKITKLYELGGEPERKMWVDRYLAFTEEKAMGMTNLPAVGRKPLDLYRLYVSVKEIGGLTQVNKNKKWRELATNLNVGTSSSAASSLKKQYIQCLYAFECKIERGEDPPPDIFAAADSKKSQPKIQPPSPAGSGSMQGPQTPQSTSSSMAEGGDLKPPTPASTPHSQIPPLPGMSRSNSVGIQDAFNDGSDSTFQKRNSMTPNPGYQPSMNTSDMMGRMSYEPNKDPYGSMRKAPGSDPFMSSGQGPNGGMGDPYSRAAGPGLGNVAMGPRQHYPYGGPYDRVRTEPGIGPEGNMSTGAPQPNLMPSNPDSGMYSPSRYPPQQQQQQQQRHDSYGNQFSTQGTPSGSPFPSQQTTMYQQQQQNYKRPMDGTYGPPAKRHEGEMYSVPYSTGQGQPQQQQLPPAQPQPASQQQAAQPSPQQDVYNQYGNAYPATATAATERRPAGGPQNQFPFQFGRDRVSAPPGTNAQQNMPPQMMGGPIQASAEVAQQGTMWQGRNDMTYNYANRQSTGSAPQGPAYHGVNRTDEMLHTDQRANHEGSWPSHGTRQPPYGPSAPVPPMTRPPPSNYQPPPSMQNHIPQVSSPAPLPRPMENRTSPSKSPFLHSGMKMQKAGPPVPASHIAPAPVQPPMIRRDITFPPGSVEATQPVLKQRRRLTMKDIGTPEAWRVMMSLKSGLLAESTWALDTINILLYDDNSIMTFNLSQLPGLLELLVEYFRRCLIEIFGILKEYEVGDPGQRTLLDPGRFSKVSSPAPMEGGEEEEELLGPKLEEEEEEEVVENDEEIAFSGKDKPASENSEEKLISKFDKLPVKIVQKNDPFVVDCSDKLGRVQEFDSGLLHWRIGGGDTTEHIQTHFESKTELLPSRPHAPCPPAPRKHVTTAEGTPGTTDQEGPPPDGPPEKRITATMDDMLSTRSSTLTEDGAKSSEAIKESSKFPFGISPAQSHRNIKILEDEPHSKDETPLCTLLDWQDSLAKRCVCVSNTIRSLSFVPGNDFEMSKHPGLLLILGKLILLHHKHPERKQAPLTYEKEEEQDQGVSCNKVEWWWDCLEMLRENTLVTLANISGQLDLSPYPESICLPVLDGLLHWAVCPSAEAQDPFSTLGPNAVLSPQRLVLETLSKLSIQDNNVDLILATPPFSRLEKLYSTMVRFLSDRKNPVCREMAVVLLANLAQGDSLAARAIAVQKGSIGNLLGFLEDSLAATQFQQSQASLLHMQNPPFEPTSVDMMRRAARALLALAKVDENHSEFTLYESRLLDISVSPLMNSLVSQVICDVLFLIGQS
UniProt P51532: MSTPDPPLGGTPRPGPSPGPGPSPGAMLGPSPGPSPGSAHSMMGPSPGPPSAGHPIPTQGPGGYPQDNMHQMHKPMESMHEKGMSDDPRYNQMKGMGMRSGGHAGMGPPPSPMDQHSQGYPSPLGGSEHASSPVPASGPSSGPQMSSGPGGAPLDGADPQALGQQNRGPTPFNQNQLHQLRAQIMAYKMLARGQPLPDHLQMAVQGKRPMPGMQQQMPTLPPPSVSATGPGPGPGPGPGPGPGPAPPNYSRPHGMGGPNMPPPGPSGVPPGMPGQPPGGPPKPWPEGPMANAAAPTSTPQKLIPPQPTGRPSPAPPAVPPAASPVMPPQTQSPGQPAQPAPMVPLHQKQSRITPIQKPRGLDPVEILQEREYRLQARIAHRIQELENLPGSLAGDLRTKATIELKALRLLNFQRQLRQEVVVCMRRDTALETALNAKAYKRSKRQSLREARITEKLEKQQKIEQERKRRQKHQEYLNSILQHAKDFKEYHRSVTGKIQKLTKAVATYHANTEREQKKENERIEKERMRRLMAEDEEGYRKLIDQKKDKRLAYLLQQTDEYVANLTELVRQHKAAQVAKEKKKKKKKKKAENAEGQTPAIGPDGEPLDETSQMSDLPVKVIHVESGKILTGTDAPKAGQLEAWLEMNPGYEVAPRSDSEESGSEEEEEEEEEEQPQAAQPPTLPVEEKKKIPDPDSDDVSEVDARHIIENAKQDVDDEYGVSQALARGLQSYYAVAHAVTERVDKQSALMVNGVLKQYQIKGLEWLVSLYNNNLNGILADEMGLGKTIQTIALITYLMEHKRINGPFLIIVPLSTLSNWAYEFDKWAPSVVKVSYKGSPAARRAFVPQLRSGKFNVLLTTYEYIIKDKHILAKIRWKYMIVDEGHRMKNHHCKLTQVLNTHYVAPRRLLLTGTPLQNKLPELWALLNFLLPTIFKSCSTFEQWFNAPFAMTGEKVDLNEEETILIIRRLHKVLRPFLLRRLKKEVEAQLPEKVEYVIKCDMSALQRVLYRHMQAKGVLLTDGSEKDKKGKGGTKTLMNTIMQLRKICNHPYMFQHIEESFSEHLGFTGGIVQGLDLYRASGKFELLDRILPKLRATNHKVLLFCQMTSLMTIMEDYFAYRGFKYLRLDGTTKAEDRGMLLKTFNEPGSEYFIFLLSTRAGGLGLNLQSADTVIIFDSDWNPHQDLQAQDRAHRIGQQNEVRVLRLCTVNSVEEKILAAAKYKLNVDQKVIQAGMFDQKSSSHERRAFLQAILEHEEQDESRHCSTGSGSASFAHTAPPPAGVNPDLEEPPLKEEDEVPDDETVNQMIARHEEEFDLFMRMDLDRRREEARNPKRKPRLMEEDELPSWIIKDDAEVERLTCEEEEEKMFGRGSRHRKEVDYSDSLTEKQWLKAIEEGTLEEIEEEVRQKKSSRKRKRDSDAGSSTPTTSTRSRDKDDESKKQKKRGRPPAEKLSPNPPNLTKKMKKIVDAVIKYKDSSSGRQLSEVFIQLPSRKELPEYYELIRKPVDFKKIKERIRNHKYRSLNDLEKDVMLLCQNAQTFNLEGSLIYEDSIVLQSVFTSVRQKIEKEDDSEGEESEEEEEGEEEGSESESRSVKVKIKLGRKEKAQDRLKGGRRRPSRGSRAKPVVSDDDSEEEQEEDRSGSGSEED
UniProt Q12824: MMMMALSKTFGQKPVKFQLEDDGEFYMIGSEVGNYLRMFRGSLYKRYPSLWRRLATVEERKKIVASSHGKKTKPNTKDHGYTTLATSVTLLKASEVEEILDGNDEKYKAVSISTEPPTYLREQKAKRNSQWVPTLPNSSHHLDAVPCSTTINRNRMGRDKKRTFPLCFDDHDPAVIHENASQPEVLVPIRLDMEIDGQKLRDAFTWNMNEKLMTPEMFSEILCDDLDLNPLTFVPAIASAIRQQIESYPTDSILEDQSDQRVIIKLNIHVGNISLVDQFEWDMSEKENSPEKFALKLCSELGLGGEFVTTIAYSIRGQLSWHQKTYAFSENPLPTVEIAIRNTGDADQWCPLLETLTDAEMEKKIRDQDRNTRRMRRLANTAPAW

Molecular target: AT-rich interactive domain-containing protein 1A (human (endogenous in HBLAK and UROtsa)) (UniProt O14497)
Assay: affinity purification with mass spectrometry; co-IP of endogenous ARID1A with antibody D2A8U against rabbit IgG isotype control from HBLAK and UROtsa lysates (IP-1: 20 mM HEPES pH 7.4, 150 mM NaCl, 0.5% NP-40, 2 mM EDTA); SDS/PAGE, trypsin digest, nanoLC-MS/MS, label-free quantitation; three biological replicates; consensus of proteins enriched more than 10-fold in both cell lines

Row | Substance | binding
1 | SMARCA4 (from UniProt P51532 1-1647) | binds
2 | SMARCB1 (from UniProt Q12824 1-385) | binds
